The record followed here is PubChem BioAssay AID248 (DTP/NCI, 2004).

This experiment relates to L1210 leukemia ip in BDF1 mice, survival T/C. As to the kind of experiment: NCI In Vivo Anticancer Drug Screen. Data for tumor model L1210 Leukemia (intraperitoneal) in B6D2F1 (BDF1) mice. Conditions: T/C endpoint: mean survival time, higher T/C = longer survival.
The mark [1] stands for this setting: dose: 400.0 mg/kg/injection, schedule: Q01DX009 (ip), vehicle: acetone.
[2] abbreviates: dose: 400.0 mg/kg/injection, schedule: Q01DX009 (ip), vehicle: Klucel (hydroxypropylcellulose) (HPC).
The mark [3] stands for this setting: dose: 400.0 mg/kg/injection, schedule: Q01DX009 (ip), vehicle: saline.
The mark [4] stands for this setting: dose: 100.0 mg/kg/injection, schedule: Q01DX009 (ip), vehicle: saline with Tween-80.
Setting [5] is: dose: 400.0 mg/kg/injection, schedule: Q04DX003 (ip), vehicle: saline with Tween-80.

The list shows only some results of the screen, not a fair sample: it gathers tests that were run many times, whatever their T/C, doses with no T/C, and many T/C values between a quarter and a half above the control. Other doses and runs of a compound stand elsewhere. T/C is the treated group as % of the vehicle group. Some entries give survivors of the animals treated and no T/C: the source holds a T/C of zero for them, seemingly a mark for toxic or unscored doses. Some doses without a T/C left all or most animals alive at the check, yet need not have been tolerated: the source hardly ever lists a survival T/C far under the control, and the zero likely stands for such cases as well. Survivors were counted at the toxicity check, usually on the fifth day, unless a day is given; later deaths do not show. Schedule codes are those of the source, taken here to give the interval after Q, in days (D) or hours (H), and the number of doses after X. Some schedule codes hold Z or #, which are not explained here. Some entries hold several experiments; the results are listed from low to high. Where survival is the endpoint, this PubChem deposit counts one and a half times the control or more as active, and values a quarter to a half above the control carry no call in these data; other NCI protocols may use other cut-offs. Some T/C values carry the count of animals alive at the toxicity check (mostly the fifth day); without a count, all were alive then.

In the case of `COc1cccc2c1C(=O)c1c(O)c3c(c(O)c1C2=O)CC(O)(C(C)=O)CC3OC1CC(NC(=S)Nc2ccccc2)C(O)C(C)O1` (stereo not given), the T/C is, setting by setting: (dose: 18.75 mg/kg/injection, schedule: Q04DX003 (ip), vehicle: saline with Tween-80) 129 % of control; (dose: 25.0 mg/kg/injection, schedule: Q01DX009 (ip), vehicle: saline with Tween-80) 138 % of control; (dose: 27.5 mg/kg/injection, schedule: Q04DX003 (ip), vehicle: saline with Tween-80) 126 % of control; (dose: 50.0 mg/kg/injection, schedule: Q01DX009 (ip), vehicle: saline with Tween-80) 127 % of control; (dose: 75.0 mg/kg/injection, schedule: Q04DX003 (ip), vehicle: saline with Tween-80) 131 % of control; (dose: 150.0 mg/kg/injection, schedule: Q04DX003 (ip), vehicle: saline with Tween-80) 133 % of control.
In the case of `O=C(OC/C=C/CC(Cl)(Cl)Cl)C(Cl)(Cl)Cl`, the survivor count under setting [1] is 1 of 6.
Consider `C=CCN(CC=C)c1ccc(N(CC)CC)cc1`, for which the survivor count under setting [2] is on record as 3 of 6.
Consider `OC(CN1CCCCC1)c1ccc2oc3ccccc3c2c1` (stereo not given), for which the survivor count (dose: 400.0 mg/kg/injection, schedule: Q04DX002 (ip), vehicle: Klucel (hydroxypropylcellulose) (HPC)) is recorded as 0 of 3.
Consider `Cc1cc(C)nc(NC(=O)Nc2ccccc2)c1`, for which the survivor count (dose: 200.0 mg/kg/injection, schedule: Q01DX009 (ip), vehicle: Klucel (hydroxypropylcellulose) (HPC)) is 6 of 6.
For the compound `CCc1ccccc1N1CCN(C(=O)c2cc(OC)c(OC)c(OC)c2)CC1`, the T/C was 142 % of control [5 of 6 alive] (dose: 150.0 mg/kg/injection, schedule: Q01DX009 (ip), vehicle: saline) and 135 % of control under setting [3]. The survivor count runs as follows: (dose: 168.0 mg/kg/injection, schedule: Q01DX Z (ip), vehicle: carboxymethylcellulose (CMC)) 6 of 6; (dose: 200.0 mg/kg/injection, schedule: Q04DX003 (ip), vehicle: acetone) 3 of 6; (dose: 252.0 mg/kg/injection, schedule: Q01DX Z (ip), vehicle: carboxymethylcellulose (CMC)) 3 of 6; (dose: 335.0 mg/kg/injection, schedule: Q01DX009 (ip), vehicle: saline) 3 of 6; (dose: 378.0 mg/kg/injection, schedule: Q01DX Z (ip), vehicle: carboxymethylcellulose (CMC)) 3 of 6; (dose: 400.0 mg/kg/injection, schedule: Q01DX001 (ip), vehicle: saline) 1 of 6. Moreover, the survivor count (dose: 567.0 mg/kg/injection, schedule: Q01DX Z (ip), vehicle: carboxymethylcellulose (CMC)) is 0 of 6.
Regarding `COC(=O)c1ccc(C(=O)O)[n+]([O-])c1`, the survivor count under setting [2] is 5 of 6.
As to `O=c1[nH]nnc2ccccc12`, the survivor count was 1 of 6 (dose: 200.0 mg/kg/injection, schedule: Q01DX009 (ip), vehicle: saline) and 2 of 6 (dose: 400.0 mg/kg/injection, schedule: Q04DX003 (ip), vehicle: alcohol).
Regarding `COc1ccccc1NC(=O)Nc1c(C)cc(C)cc1C`, for the setting “dose: 100.0 mg/kg/injection, schedule: Q01DX009 (ip), vehicle: Klucel (hydroxypropylcellulose) (HPC)”, the survivor count was 6 of 6.
In the case of `CCSC1OC(CO)C(O)C1Nc1ccc([N+](=O)[O-])cc1[N+](=O)[O-]` (stereo not given), the survivor count is on record as 0 of 4 (dose: 200.0 mg/kg/injection, schedule: Q01DX001 (ip), vehicle: carboxymethylcellulose (CMC)) and 0 of 4 (dose: 400.0 mg/kg/injection, schedule: Q01DX001 (ip), vehicle: carboxymethylcellulose (CMC)).
Take `CN(C)[C@@H]1C(=O)C(C(=O)NCNc2nc3n[nH]nc3c(=O)[nH]2)=C(O)[C@@]2(O)C(=O)C3=C(O)c4c(O)cccc4[C@@](C)(O)[C@H]3C[C@@H]12`: the T/C under setting [1] is 129 % of control.
With `COc1ccc(C(=O)Nc2ccc(C3=NCCN3)cc2)cc1C(=O)Nc1ccc(C2=NCCN2)cc1`, the T/C (dose: 15.0 mg/kg/injection, schedule: Q01DX Z (ip), vehicle: saline) is 131 and 148 % of control. Besides, the survivor count is, setting by setting: (dose: 240.0 mg/kg/injection, schedule: Q01DX Z (ip), vehicle: saline) 1 of 6; (dose: 480.0 mg/kg/injection, schedule: Q01DX Z (ip), vehicle: saline) 0 of 6.
With `Clc1ccc(C(c2cccs2)N2CCNCC2)cc1` (stereo not given), the survivor count is on record as 3 of 6 under setting [4]; 0 of 6 (dose: 200.0 mg/kg/injection, schedule: Q04DX003 (ip), vehicle: saline with Tween-80); 0 of 6 under setting [5].
Take `O=[N+]([O-])c1ccc2c(c1)[As](=O)(O)c1cc([N+](=O)[O-])ccc1-2`: the survivor count (dose: 150.0 mg/kg/injection, schedule: Q01DX001 (ip), vehicle: saline) is recorded as 2 of 6 and the survivor count (dose: 300.0 mg/kg/injection, schedule: Q01DX001 (ip), vehicle: saline) is given as 0 of 6.
As for `CCc1c[c]([Hg][Cl])c(CC)c(CC)c1CC`, the survivor count under setting [4] was 0 of 6; the survivor count (dose: 200.0 mg/kg/injection, schedule: Q01DX009 (ip), vehicle: saline with Tween-80) is reported as 0 of 6; the survivor count (dose: 400.0 mg/kg/injection, schedule: Q01DX009 (ip), vehicle: saline with Tween-80) was 0 of 6.
For `Cc1c[n+]2c3ccccc3c3ccccc3c2s1`, the T/C (dose: 10.0 mg/kg/injection, schedule: Q01DX009 (ip), vehicle: Klucel (hydroxypropylcellulose) (HPC)) was 125 % of control. The survivor count is on record as 3 of 6 (dose: 20.0 mg/kg/injection, schedule: Q01DX009 (ip), vehicle: Klucel (hydroxypropylcellulose) (HPC)); 0 of 6 (dose: 40.0 mg/kg/injection, schedule: Q01DX009 (ip), vehicle: Klucel (hydroxypropylcellulose) (HPC)); 0 of 6 (dose: 40.0 mg/kg/injection, schedule: Q04DX003 (ip), vehicle: Klucel (hydroxypropylcellulose) (HPC)); 0 of 6 (dose: 80.0 mg/kg/injection, schedule: Q01DX009 (ip), vehicle: Klucel (hydroxypropylcellulose) (HPC)); 6 of 6 (dose: 80.0 mg/kg/injection, schedule: Q04DX003 (ip), vehicle: Klucel (hydroxypropylcellulose) (HPC)).
For `Brc1ccc(C2=CSC3=NCCN23)cc1`, the survivor count was 0 of 6 and 2 of 6 (dose: 100.0 mg/kg/injection, schedule: Q04DX003 (ip), vehicle: Klucel (hydroxypropylcellulose) (HPC)); 0 of 6 (dose: 200.0 mg/kg/injection, schedule: Q04DX003 (ip), vehicle: Klucel (hydroxypropylcellulose) (HPC)); 0 of 6 (dose: 400.0 mg/kg/injection, schedule: Q04DX003 (ip), vehicle: Klucel (hydroxypropylcellulose) (HPC)).
For `CCOC1OC(C2COC(=O)O2)C(O)C1O` (stereo not given), the T/C (dose: 400.0 mg/kg/injection, schedule: Q04DX002 (ip), vehicle: saline) is 127 % of control.
Consider `CCCCCCCCCCCC[n+]1cccc2ccccc21`, for which the survivor count (dose: 0.35 mg/kg/injection, schedule: Q01DX009 (ip), vehicle: saline) was 6 of 6; the survivor count (dose: 1.4 mg/kg/injection, schedule: Q01DX009 (ip), vehicle: saline) is listed as 0 of 6; the survivor count (dose: 2.0 mg/kg/injection, schedule: Q01DX001 (ip), vehicle: saline) is 2 of 6; the survivor count (dose: 2.09 mg/kg/injection, schedule: Q01DX009 (ip), vehicle: saline) was 3 of 6; the survivor count (dose: 2.2 mg/kg/injection, schedule: Q04DX003 (ip), vehicle: saline) was 0 of 6; the survivor count (dose: 3.18 mg/kg/injection, schedule: Q01DX009 (ip), vehicle: saline) is listed as 0 of 6. The survivor count was 3 of 6 (dose: 3.3 mg/kg/injection, schedule: Q04DX003 (ip), vehicle: saline); 4 of 6 (dose: 4.0 mg/kg/injection, schedule: Q01DX015 (ip), vehicle: carboxymethylcellulose (CMC)); 2 of 6 (dose: 4.77 mg/kg/injection, schedule: Q01DX009 (ip), vehicle: saline); 3 of 6 (dose: 8.0 mg/kg/injection, schedule: Q01DX015 (ip), vehicle: carboxymethylcellulose (CMC)).
For the compound `O=S1(=O)N=C(c2ccccc2)CC(c2ccccc2)N1` (stereo not given), the survivor count under setting [5] was 3 of 6.
On to `CP1(=O)CC2OC23CCCCC31` (stereo not given), for which the T/C (dose: 50.0 mg/kg/injection, schedule: Q01DX009 (ip), vehicle: other) is 132 % of control.
On to `O=C1OC(=O)C2CCC12` (stereo not given), for which the survivor count under setting [3] is 3 of 6.
